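Methionyl-tRNA synthetase (putative), Leishmania donovani (UniProt E9BF75). Primary screen of methionyl-tRNA synthetase; the read-out is not stated. The test concentration is not given. Values are per cent inhibition. About 68,000 compounds were tested under these conditions; 0.035% (about 24) showed 50% or more at least once.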

The chains behind the UniProt entries cited, without tags or fusion partners.
UniProt E9BF75, entry or part of it: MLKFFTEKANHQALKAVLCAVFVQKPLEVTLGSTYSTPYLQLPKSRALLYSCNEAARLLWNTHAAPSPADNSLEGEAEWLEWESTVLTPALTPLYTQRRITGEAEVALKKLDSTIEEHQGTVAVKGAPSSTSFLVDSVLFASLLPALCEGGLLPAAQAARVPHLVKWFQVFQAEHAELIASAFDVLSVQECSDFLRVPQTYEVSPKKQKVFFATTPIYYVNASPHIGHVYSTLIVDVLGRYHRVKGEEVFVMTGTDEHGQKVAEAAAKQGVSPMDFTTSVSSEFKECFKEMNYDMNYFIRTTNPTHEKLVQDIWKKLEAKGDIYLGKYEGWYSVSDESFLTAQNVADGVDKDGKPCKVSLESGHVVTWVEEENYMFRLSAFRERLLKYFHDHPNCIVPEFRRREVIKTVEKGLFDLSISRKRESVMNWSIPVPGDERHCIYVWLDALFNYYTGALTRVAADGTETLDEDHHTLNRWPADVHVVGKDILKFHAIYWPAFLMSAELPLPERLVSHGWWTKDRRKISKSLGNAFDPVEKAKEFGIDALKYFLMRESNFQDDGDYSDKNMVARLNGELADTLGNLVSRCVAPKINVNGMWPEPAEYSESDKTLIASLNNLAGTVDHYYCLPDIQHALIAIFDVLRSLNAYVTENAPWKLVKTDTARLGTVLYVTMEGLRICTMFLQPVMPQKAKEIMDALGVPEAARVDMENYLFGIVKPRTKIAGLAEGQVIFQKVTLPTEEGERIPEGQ

Results are percentages, as filed. The record does not define 0% and 100%; most values in the screen are far below 50% and negative numbers occur (in some assays of this library far below -100). Compounds were drawn at random from those tested, without regard to their results.

For CC(=O)N1CCC(C(=O)N2CCOC(CC3CCCCC3)C2)CC1 (stereo unspecified) the result was 11.29%. With N#Cc1ccccc1N1CCN(CCC(=O)N2CCOCC2)CC1 the screen gave 12.64%. Result for Cc1cc(C)n(CC2CCCN2C(=O)c2ccc3nnc(C)n3c2)n1 (stereo unspecified) was 16.47%. With CC(C)c1nccn1Cc1cc(C(=O)NCC(F)(F)F)n[nH]1 the screen gave -7.759%. For CC(C)c1nc2n(n1)CC(NCc1ccncc1)CC2 (stereo unspecified) the result was 7.746%. For CCN(CC1CCCO1)S(=O)(=O)N1CCCCCC1 (stereo unspecified) the result was 13.44%. CCC1CN(CCCO)c2ccccc2O1 (stereo unspecified) gave 7.784%.

With O=C([C@@H]1COC[C@H]2CN(C3CCOCC3)C[C@H]21)N1CCCCO1 the screen gave 1.255%. Result for CS(=O)(=O)N1CCC2(CC1)CC(OCC1CCOCC1)CO2 (stereo unspecified) was 9.489%. CN1CSC[C@H]1C(=O)N1CCN(Cc2cccc(Cl)c2)CC1 read 10.42%. Result for NC1(CN2CCOCC2)CCCCC1 was 7.349%. For O=C(c1ncccn1)N1C[C@@H]2CC[C@H](Oc3cccc(F)c3)[C@@H]2C1 the result was 21.36%. Result for Cc1ccc(CN2C[C@@H](OCc3csc(C)n3)[C@H]3COC[C@H]32)s1 was 14.38%. CC1CCCCN1C(=O)Cn1cc(I)cn1 (stereo unspecified) read 13.52%.

With Cc1nc(CN2CCCC(N(C)CCc3ccncc3)C2)no1 (stereo unspecified) the screen gave 7.937%. Result for O=S(=O)(c1cc(F)ccc1F)N1CCCC1c1ccncc1 (stereo unspecified) was 8.883%. For COc1ccc2c(c1)CCCN(C(C)C(=O)NC(N)=O)C2 (stereo unspecified) the result was 17.25%. O=C(NCC(CO)Cc1cccc(OC(F)(F)F)c1)c1cnccn1 (stereo unspecified) read 5.914%. COc1c(C2CCCN2CC(=O)N2CCCCC2)c(C)nn1C (stereo unspecified) gave 12.01%. CC(=O)N1CC[C@@H]2CN(Cc3cccc(Cl)c3)S(=O)(=O)[C@@H]2CC1 gave 18.52%. With CC(C)c1nsc(N2CCSCC2)n1 the screen gave 14.5%.

N[C@@H]1CC[C@H](C(=O)NCCc2nc(-c3ccccc3)cs2)C1 gave 4.337%. C1CC(CN2C[C@@H]3C[C@@H](c4nnc(C5CC5)o4)O[C@@H]3C2)C1 read 0.274%. Cc1ccnc(Cn2cc(-c3cccc(C(C)N(C)C)c3)nn2)c1 (stereo unspecified) read 8.38%. With CC(=O)N1CCN(Cc2ccc(F)c(C(F)(F)F)c2)CC(O)C1 (stereo unspecified) the screen gave 12.06%. Result for Clc1ccccc1-c1nc(CNCCn2cccn2)cs1 was 13.27%. For COC(=O)c1ccccc1C(=O)N(CCN(C)C)Cc1sccc1C the result was 9.966%. Result for CC(CNC(=O)c1cccc(-n2cccn2)c1)Cn1ccnc1 (stereo unspecified) was 19.05%.

Result for CCc1noc(CN(CC(=O)N2CCCCC2)c2cccc(C)c2)n1 was 11.06%. With COc1ccc(-n2ncc3c2NC(=O)CSC3CC(C)C)cc1 (stereo unspecified) the screen gave 17.27%. Result for CN(C)C(=O)Cn1c(C2CC2)c(CN2CCC(O)CC2)c2cccnc21 was 5.319%. CC(=O)N(Cc1ncc(C)o1)C1CCN(CCNC2CCCCC2)C1 (stereo unspecified) gave 1.859%. Cc1csc(N2CCN(C(=O)C3(C#N)CCCC3)CC2)n1 gave 13.66%. COCCC(=O)N1CCCC1c1nccc(C)n1 (stereo unspecified) read -154.7%. CC(C)CNC(=O)c1cc(C2CC2)nc2c1c(C1CCCN1)nn2C (stereo unspecified) gave 6.286%.

With Cc1ccc(F)c(S(=O)(=O)NCc2[nH]ncc2Br)c1 the screen gave 12.22%. c1ccc(-c2nnc(CN3C[C@@H]4CC[C@H](C3)N(CC3CCC3)C4)o2)cc1 read 1.423%. CCOc1ccc(CN(CCC#N)CCN2CCOCC2)cc1OC read 12.9%. Result for CC(C)NC(=O)N1Cc2nccn2CC(CN2CCCC2)C1 (stereo unspecified) was 15.56%. Result for CC(C)OCCN(Cc1cccc(O)c1)C1CCC(O)CC1 (stereo unspecified) was 13.01%. O=c1ccc2c(n1Cc1cccnc1)CCN(C1CCOC1)CC2 (stereo unspecified) read 16.79%. With O=C(C1CC=CC1)N1CCc2ncnc(-c3ccncc3)c2CC1 the screen gave 12.05%.

O=C(CCN1CCCC1)Nc1c2c(cc3c1CCC3)CCC2 read 4.737%. CCOC(=O)N1CCC(Oc2ccc(C(F)(F)F)cn2)CC1 gave 9.051%. With COc1cc(C(=O)NC(C)(C)CN2CCN(C)CC2)c2ccccc2n1 the screen gave 15.94%. Cc1cnn(CC2CCCN2CC(=O)NCc2ccccn2)c1 (stereo unspecified) read 6.402%. With CN(C)CCn1ccnc1C1CCN(c2cc(N)nc(N)n2)CC1 the screen gave 12.26%. Result for CN(C)C(=O)C1CCN(c2cncc(-n3cccn3)n2)CC1 was -0.5495%. CC(C(=O)N1CCOCC1)n1nc(-c2cccs2)cc(N)c1=O (stereo unspecified) read 6.032%.

Result for COCCn1ccnc1C1CCCN(C(=O)CSCC2CC2)C1 (stereo unspecified) was 2.655%. O=S(=O)(C1CC1)N1CCC2(CN(c3ncccn3)C2)C1 read 2.241%.

Repeated from the top, 5 entries:

structure,Inhibition
CC(=O)N1CCC(C(=O)N2CCOC(CC3CCCCC3)C2)CC1 (stereo unspecified),11.29
N#Cc1ccccc1N1CCN(CCC(=O)N2CCOCC2)CC1,12.64
Cc1cc(C)n(CC2CCCN2C(=O)c2ccc3nnc(C)n3c2)n1 (stereo unspecified),16.47
CC(C)c1nccn1Cc1cc(C(=O)NCC(F)(F)F)n[nH]1,-7.759
CC(C)c1nc2n(n1)CC(NCc1ccncc1)CC2 (stereo unspecified),7.746

Measurements from “University of Dundee, Small-Polar-MMV Screening Library” (2021), ChEMBL document CHEMBL3988442.